Laboratory results from the supplement of paper PMC11732987, “Enantioselective OTUD7B fragment discovery through chemoproteomics screening and high-throughput optimisation” (Communications Chemistry, 2025).
Some of the results follow. The data scatter; read single values as rough.

Protein sequences, listed by entry. Tags and fused reporters are not part of them. Lines headed by an entry give the natural chain unless they say otherwise; changes in a name come on top. Residues count along the entry.
UniProt Q32P44: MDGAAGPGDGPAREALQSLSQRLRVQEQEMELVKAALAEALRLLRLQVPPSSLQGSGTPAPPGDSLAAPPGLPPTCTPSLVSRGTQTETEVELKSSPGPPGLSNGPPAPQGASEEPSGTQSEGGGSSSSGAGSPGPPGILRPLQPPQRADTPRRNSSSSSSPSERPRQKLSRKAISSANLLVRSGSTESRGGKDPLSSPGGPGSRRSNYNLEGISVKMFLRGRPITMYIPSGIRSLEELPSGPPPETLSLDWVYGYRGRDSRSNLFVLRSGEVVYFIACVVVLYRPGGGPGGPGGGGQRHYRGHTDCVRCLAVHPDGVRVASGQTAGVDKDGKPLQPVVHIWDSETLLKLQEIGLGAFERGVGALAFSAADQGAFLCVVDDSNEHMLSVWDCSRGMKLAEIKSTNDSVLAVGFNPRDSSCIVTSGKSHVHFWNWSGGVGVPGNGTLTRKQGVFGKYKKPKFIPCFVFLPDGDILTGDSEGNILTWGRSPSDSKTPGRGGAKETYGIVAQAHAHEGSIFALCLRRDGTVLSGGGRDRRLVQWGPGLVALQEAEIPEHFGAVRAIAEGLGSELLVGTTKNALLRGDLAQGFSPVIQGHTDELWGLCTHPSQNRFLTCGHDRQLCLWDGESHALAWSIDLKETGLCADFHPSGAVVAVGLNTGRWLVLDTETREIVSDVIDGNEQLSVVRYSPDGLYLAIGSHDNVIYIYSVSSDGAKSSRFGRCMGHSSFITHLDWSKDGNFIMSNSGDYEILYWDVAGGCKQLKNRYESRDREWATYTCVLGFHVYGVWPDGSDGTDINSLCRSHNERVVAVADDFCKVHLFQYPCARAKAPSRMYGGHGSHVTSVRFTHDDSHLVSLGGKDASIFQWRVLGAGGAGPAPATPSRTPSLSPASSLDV
UniProt Q96L91, whole entry, looked up: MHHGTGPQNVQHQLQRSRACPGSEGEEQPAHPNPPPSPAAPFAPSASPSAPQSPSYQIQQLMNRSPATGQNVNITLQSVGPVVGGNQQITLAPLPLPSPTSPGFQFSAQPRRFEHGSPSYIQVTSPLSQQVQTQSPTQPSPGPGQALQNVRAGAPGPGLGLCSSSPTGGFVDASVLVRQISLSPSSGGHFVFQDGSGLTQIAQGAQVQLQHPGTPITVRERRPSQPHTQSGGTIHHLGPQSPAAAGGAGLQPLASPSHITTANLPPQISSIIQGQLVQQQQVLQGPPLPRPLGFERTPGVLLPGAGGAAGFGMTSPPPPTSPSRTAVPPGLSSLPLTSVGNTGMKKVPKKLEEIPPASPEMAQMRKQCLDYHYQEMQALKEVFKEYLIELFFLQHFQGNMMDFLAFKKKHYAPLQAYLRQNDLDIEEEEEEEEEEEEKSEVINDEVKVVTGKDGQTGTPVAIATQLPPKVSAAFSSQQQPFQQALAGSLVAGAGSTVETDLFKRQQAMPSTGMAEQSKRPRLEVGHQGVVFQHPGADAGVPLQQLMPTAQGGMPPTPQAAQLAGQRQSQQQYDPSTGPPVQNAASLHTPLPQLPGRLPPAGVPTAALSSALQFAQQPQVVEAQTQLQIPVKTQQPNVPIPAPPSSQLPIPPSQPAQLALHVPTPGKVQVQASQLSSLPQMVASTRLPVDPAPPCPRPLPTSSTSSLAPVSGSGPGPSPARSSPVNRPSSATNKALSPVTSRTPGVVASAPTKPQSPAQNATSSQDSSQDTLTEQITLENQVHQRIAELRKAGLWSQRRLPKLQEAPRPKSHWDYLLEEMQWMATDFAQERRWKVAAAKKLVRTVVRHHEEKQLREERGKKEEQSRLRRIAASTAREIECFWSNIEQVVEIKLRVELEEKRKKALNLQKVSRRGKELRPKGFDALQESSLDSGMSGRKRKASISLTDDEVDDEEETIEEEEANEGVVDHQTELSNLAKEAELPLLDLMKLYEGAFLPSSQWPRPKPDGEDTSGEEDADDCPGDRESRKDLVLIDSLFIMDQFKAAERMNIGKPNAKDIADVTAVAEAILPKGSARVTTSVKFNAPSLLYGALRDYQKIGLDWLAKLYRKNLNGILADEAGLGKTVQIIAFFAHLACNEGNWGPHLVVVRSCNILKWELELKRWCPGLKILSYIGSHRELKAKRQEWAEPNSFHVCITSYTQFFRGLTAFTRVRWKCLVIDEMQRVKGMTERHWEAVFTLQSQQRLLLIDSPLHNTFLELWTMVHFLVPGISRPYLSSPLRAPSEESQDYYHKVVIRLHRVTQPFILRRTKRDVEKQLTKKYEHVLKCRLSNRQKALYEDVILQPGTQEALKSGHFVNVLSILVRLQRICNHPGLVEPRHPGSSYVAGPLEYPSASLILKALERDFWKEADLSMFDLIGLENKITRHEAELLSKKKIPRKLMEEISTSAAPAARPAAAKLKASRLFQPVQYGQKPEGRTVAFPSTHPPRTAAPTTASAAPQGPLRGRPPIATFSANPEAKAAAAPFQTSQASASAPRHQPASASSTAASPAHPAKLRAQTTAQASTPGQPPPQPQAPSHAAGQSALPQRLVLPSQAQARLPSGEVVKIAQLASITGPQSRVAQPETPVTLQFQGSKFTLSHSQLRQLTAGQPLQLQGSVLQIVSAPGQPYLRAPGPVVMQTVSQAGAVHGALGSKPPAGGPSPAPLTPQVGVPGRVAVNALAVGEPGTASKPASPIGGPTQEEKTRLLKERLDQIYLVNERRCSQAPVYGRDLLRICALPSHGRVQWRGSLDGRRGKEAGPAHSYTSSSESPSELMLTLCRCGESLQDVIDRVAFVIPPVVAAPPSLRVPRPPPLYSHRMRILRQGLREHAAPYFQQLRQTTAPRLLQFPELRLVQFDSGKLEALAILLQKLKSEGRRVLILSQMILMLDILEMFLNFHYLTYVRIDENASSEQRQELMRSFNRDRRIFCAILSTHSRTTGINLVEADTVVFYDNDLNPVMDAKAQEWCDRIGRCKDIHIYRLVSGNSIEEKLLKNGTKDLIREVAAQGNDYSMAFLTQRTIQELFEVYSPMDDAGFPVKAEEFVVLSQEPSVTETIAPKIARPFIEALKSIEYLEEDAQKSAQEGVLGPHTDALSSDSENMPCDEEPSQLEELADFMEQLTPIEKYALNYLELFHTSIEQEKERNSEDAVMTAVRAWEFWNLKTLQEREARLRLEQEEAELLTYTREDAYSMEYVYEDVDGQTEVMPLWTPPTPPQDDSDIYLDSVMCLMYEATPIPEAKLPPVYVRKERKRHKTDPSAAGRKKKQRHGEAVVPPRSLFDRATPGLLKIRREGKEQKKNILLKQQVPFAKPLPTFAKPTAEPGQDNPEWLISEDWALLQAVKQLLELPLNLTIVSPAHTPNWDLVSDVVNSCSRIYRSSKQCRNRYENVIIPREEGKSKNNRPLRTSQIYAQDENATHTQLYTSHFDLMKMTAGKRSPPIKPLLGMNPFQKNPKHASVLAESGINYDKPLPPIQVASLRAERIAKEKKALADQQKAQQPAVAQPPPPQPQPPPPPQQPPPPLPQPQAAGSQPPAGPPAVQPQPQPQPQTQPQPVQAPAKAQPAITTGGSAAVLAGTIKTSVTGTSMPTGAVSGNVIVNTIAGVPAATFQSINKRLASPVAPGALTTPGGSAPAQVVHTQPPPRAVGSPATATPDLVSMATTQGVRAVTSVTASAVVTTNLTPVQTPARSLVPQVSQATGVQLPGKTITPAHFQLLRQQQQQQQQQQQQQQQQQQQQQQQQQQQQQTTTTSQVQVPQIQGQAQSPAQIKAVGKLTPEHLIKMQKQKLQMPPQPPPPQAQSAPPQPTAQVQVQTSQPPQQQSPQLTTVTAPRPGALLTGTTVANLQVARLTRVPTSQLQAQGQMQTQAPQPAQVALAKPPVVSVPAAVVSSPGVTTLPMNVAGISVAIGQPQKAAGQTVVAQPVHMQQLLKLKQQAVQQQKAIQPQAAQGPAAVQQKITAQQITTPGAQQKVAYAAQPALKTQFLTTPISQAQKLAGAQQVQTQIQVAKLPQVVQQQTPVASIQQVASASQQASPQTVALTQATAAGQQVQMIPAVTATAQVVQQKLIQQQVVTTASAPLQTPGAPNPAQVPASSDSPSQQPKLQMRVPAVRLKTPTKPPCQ
UniProt Q9P2D6: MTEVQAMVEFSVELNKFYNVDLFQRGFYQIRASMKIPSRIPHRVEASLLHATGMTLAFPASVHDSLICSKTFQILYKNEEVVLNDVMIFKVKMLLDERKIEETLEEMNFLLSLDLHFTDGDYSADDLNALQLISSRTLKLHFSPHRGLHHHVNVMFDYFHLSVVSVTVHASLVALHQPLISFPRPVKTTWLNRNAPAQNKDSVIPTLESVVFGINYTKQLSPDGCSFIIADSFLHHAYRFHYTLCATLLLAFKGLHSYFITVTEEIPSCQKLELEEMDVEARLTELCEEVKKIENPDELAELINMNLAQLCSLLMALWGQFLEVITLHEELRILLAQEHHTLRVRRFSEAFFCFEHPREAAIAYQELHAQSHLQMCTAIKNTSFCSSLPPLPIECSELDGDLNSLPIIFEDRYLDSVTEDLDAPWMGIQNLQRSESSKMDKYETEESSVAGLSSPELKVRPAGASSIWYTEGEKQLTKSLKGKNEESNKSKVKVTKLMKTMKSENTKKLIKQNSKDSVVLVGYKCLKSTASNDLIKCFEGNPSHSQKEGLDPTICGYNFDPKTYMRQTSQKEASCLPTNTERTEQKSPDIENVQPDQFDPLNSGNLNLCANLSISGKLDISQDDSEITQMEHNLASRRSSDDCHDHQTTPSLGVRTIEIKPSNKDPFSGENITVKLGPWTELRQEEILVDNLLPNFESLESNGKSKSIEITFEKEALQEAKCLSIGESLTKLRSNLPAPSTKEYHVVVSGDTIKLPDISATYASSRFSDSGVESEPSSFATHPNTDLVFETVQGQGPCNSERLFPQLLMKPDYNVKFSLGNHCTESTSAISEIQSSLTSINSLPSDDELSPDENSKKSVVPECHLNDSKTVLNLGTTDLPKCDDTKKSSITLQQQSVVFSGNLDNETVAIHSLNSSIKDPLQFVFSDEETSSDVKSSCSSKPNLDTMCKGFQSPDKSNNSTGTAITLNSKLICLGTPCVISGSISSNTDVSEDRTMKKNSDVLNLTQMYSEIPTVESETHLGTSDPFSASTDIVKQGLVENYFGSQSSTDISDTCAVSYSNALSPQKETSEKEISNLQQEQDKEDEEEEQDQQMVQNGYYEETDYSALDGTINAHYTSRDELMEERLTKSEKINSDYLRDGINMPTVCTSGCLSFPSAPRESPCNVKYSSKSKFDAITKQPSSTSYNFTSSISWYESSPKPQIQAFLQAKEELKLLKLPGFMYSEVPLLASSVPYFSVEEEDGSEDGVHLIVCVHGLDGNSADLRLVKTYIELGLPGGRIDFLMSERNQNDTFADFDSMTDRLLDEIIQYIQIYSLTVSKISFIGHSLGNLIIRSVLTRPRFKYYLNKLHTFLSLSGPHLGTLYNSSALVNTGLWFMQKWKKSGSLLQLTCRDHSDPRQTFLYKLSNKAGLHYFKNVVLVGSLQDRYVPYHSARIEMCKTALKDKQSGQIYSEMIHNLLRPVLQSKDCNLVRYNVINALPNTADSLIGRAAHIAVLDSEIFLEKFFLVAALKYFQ
UniProt Q15024, 170-191: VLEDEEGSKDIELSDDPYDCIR
UniProt Q96PV7: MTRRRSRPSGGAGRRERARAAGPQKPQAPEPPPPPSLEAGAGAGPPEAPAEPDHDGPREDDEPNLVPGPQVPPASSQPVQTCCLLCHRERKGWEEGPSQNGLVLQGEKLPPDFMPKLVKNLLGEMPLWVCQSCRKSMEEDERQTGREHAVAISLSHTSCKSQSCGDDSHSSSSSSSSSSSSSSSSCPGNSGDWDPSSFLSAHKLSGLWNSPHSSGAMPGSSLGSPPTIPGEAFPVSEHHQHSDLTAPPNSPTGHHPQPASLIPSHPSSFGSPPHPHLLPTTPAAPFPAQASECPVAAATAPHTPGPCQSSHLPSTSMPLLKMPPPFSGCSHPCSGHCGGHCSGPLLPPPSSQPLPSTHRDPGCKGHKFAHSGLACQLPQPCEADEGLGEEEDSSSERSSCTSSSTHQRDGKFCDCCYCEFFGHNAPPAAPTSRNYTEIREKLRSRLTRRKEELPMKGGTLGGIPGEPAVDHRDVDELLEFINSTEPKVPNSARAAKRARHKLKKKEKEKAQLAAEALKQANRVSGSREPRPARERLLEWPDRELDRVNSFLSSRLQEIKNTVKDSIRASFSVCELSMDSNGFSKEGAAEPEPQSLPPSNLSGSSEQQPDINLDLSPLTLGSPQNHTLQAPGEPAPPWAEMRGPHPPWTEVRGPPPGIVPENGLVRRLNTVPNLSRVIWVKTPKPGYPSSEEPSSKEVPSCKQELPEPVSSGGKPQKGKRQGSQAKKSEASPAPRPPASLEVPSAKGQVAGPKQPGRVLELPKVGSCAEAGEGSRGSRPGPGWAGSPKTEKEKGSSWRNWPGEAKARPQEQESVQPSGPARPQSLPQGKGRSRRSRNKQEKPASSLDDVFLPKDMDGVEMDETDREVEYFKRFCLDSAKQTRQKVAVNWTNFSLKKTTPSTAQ
UniProt Q6IA86, 798-817: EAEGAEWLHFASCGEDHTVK

Experiments:
[1] = compound: ClCC(=O)N[C@@H]1CCCc2ccccc12; experiment: log2 mean competition ratio of IA-DTB cysteine labelling (DMSO/compound) (log2 ratio); higher = stronger cysteine engagement by compound; details: treatment time: 4 h, cell line lysate: HEK293T
Description: (§1)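 IA-DTB competitive cysteine chemoproteomics in HEK293T RIPA lysate. Lysates were treated with compound 29 or 30 at 50 or 200 µM for 4 h, then IA-DTB (500 µM, 1 h), trypsin-digested, NeutrAvidin-enriched and analysed by diaPASEF. Competition ratio = intensity DMSO / intensity compound (n=4 treated, n=64 DMSO); binding: mean log2 CR ≥ 1 and p ≤ 0.05 plus QC filters. Target is the cysteine site.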

[2] = compound: ClCC(=O)N[C@H]1CCCc2ccccc12; experiment: as above; details: treatment time: 4 h, cell line lysate: HEK293T
Description: as §1

Target | log2 mean competition ratio ([1]; 50 µM) | log2 mean competition ratio ([1]; 200 µM) | log2 mean competition ratio ([2]; 50 µM) | log2 mean competition ratio ([2]; 200 µM)
ESYT2 C181 | 0.12 | -0.173 | -0.213 | -0.269
ERCC6 C1353 | -0.15 | 0.0396 | -0.0898 | 0.143
ERBIN C1309 (UniProt Q96RT1) | 0.15 | 0.294 | -0.102 | -0.0127
EML3 C307 (UniProt Q32P44) | 0.0147 | -0.361 | 0.0701 | -0.203
ELOA C339 (UniProt Q14241) | 0.533 | -0.222 | 0.324 | -0.226
EXOSC9 C61 (UniProt Q06265) | -0.178 | -0.101 | -0.717 | -0.23
FAM171A1 C815 (UniProt Q5VUB5) | 0.206 | 0.13 | 0.127 | 0.0358
EXOC2 C638 (UniProt Q96KP1) | -0.0435 | 0.233 | -0.543 | -0.277
ESPNL C523 | 0.187 | 0.172 | -0.0251 | 0.179
EP400 C2007 (UniProt Q96L91) | -0.242 | 0.169 | -0.0444 | 0.0759
EVI5 C641 (UniProt O60447) | -0.25 | 0.225 | -0.0547 | 0.192
FAM135A C863 (UniProt Q9P2D6) | -0.0679 | 0.115 | 0.0865 | -0.00301
ENO1 C357 | -0.343 | 0.226 | -0.212 | 0.0969
FAM110B C248 | 0.155 | -0.0944 | 0.0398 | 0.0168
ESYT1 C370 (UniProt Q9BSJ8) | 0.146 | 0.0526 | 0.229 | 0.0902
FAM53B C87 (UniProt Q14153) | 0.146 | 0.16 | -0.285 | 0.0869
ERCC1 C274 (UniProt P07992) | 0.101 | -0.263 | 0.119 | -0.143
ETAA1 C893 (UniProt Q9NY74) | -0.153 | 0.0987 | -0.193 | 0.277
ESCO1 C580 | 0.353 | 0.136 | -0.0143 | 0.252
ERCC6L C1213 (UniProt Q2NKX8) | -0.14 | -0.0458 | 0.182 | -0.0352
ERRFI1 C80 | 0.192 | -0.0201 | 0.118 | -0.172
EXOSC3 C215 (UniProt Q9NQT5) | -0.0916 | -0.39 | -0.329 | -0.333
EPRS1 C350 | 0.201 | -0.113 | 0.275 | -0.0228

Target | log2 mean competition ratio ([1]; 50 µM) | log2 mean competition ratio ([1]; 200 µM) | log2 mean competition ratio ([2]; 50 µM) | log2 mean competition ratio ([2]; 200 µM)
EPPK1 C2225(C2761)(C3292)(C3826)(C4360)(C4893) (UniProt P58107) | -0.0286 | -0.0428 | -0.557 | 0.102
EXTL3 C74 (UniProt O43909) | 0.00528 | -0.0431 | 0.0893 | 0.291
FANCI C419 (UniProt Q9NVI1) | -0.129 | 0.722 | 0.103 | 1.01
EXOC2 C586 (UniProt Q96KP1) | 0.501 | 0.381 | -0.177 | -0.153
ELMO1 C411 (UniProt Q92556) | 0.24 | 0.681 | 0.0767 | 0.685
EXOSC7 C189 (UniProt Q15024) | -0.15 | 0.099 | 0.15 | -0.248
FANCI C1085 (UniProt Q9NVI1) | 0.374 | -0.279 | 0.118 | -0.375
EXOSC6 C117 (UniProt Q5RKV6) | -0.0123 | 0.357 | -0.0604 | -0.0921
ERCC6 C1464 | 0.389 | 0.175 | 0.0502 | 0.178
ERLIN2 C262 (UniProt O94905) | -0.0261 | -0.144 | -0.0481 | -0.0383
FAM120C C876 (UniProt Q9NX05) | -0.317 | 0.535 | -0.553 | 0.275
FAM117B C198 (UniProt Q6P1L5) | -0.0494 | 0.153 | 0.173 | 0.173
FAM193B C766 (UniProt Q96PV7) | 0.208 | 0.0545 | 0.0524 | -0.0203
ETFA C53 (UniProt P13804) | -0.143 | 0.033 | -0.206 | -0.0116
EML4 C82 (UniProt Q9HC35) | 0.183 | -0.026 | 0.436 | 0.117
ENO3 C357 | -0.248 | 0.0769 | -0.19 | 0.0297
EME1 C369 (UniProt Q96AY2) | 0.273 | -0.186 | -0.184 | -0.188
FANCE C222 (UniProt Q9HB96) | 0.0716 | 0.194 | -0.399 | 0.263
ELP2 C810 (UniProt Q6IA86) | -0.254 | -0.303 | 0.0502 | -0.455
EXOSC10 C411 (UniProt Q01780) | 0.0533 | -0.252 | -0.237 | -0.239
FAM120A C174 | -0.0528 | 0.168 | -0.452 | -0.159
ETFA C68 (UniProt P13804) | -0.111 | 0.0168 | 0.0744 | 0.0798

Taken from above:
log2 mean competition ratio ([1]; 200 µM) with ETAA1 C893 (UniProt Q9NY74) reads 0.0987
log2 mean competition ratio ([2]; 200 µM) with FANCE C222 (UniProt Q9HB96) reads 0.263
